Not every detail of the peptide structures is certain; ends, links or a residue may be inferred. For part of these data: For at least one compound, name, drawing or mass did not settle the structure.
Tests used:
[1] = tested on: Dahl salt-sensitive rats; assay: Hypertension-induced heart failure rat model (survival, echocardiography, blood pressure, body weight); type: in vivo; conditions: for survival rate: high-salt rats vs HS-control, peptides 2.8 μg/kg/day s.c. pump, olmesartan 3 mg/kg/day, 11-17 weeks (ΨεRACK 15-17 weeks)
Description: To determine whether εPKC plays any role in the transition to heart failure and death, HS rats were treated with the selective εPKC inhibiting peptide, TAT47-57-εV1-2 (εV1-2; 2.8 μg/kg/day using a subcutaneous Alzet pump (26)) or with saline as a control (HS-control) from the age of 11 weeks (when compensatory hypertrophy is seen) to 17 weeks (when heart failure is apparent; FIG. 1A)). Another group of hypertensive rats was treated for the same period with a common clinical treatment, the angiotensin II receptor type 1 blocker (ARB, olmesartan, Olm; 3 mg/kg/day).
Animal protocols were approved by the Stanford University Institutional Animal Care and Use Committee. Dahl salt-sensitive rats provide a reliable animal model of hypertension-induced heart failure. When placed on 8% NaCl-containing diet from the age of 6 weeks (HS rats), the rats develop compensative left ventricular hypertrophy by the age of 11 weeks, and die from heart failure when they reach 16 to 21 weeks (21, 25). Male Dahl salt-sensitive rats were fed with an 8% NaCl-containing diet (Dahl-high-salt) or with a 0.3% NaCl low salt diet (LS-control; n=25) from the age of 6 weeks onward as previously reported (3, 21). Dahl-high-salt rats were treated between the ages of 11 and 17 weeks with the selective εPKC inhibiting peptide, TAT47-57-εV1-2 (εV1-2; n=10, 2.8 μg/kg/day), with TAT47-57-εV1-1 (εV1-1; n=14, 2.8 μg/kg/day), or with saline as a control (HS-Control; n=12), using osmotic pumps implanted subcutaneously. A fourth group was treated with angiotensin II receptor type 1 blocker, olmesartan (ARB; n=12, 3 mg/kg/day in 0.5% carboxymethylcellulose) delivered by daily gavage for the same period. A fifth group was treated from 15 to 17 weeks of age with the selective εPKC activating peptide, TAT47-57-ΨεRACK (ΨεRACK; n=17, 2.8 μg/kg/day) using an osmotic pump implanted subcutaneously (FIG. 1).
The osmotic pumps were replaced every two weeks, but were discontinued after the age of 17 weeks because half of the HS-control rats died by that age. Additional groups were treated with εV1-2 (using the Alzet pump) together with ARB (n=12) or with ARB alone (n=13) from 11 to 19 weeks of age (FIG. 6). Survival rate, fractional shortening and blood pressure were evaluated in these groups. Systolic blood pressure was measured by the tail-cuff method (BP-2000 Blood Pressure Analysis System, Visitech Systems, Inc), and fractional shortening was measured by transthoracic echocardiography (Vivid 7, GE). Additional control Dahl-high-salt rats were treated with TAT47-57 carrier peptide between 11 to 17 weeks or between 15 to 17 weeks, with vehicle for ARB (0.5% carboxymethylcellulose) or were left untreated and evaluated for survival rate, cardiac function and blood pressure.

[2] = tested on: MMP2; assay: In-gel zymography of LV tissue; type: in vivo, rat; conditions: hypertensive rats
[3] = tested on: δPKC; assay: Western blot of δPKC expression and translocation in LV tissue; type: in vivo, rat; conditions: 17-week-old hypertensive rats, vs HS-control
[4] = tested on: Dahl salt-sensitive rats; assay: Histological analysis of left ventricle (Masson's trichrome, H&E); type: in vivo, rat; conditions: as compared with HS-control; two-week treatment; 17-week-old rats
Description: For morphometric analysis, left ventricle (LV) specimens from 17-week-old rats (n=4 for each group) were fixed with 10% buffered formalin and embedded in paraffin. Several sections were prepared from each specimen and stained with either hematoxylin and eosin (H&E) for assessment of inflammation and proliferation of vascular cells, or with Masson's trichrome stain to assess the area of cardiac fibrosis using a point-counting method (22, 23).

[5] = tested on: troponin T; assay: Serum troponin T in 17-week-old rats; type: in vivo, rat
[6] = tested on: 92 genes; assay: Real-time PCR gene expression in LV tissue; type: in vivo, rat; conditions: LV from 17-week-old rats
Description: In another study, the effects of pharmacological inhibition or activation of εPKC and olmesartan on gene expression profile was analyzed. To address the molecular differences in the protective effects induced by εPKC inhibition and olmesartan, real-time PCR was used to monitor changes in gene expression resulting from each treatment. The effects of chronic treatment (as above) with the εPKC inhibitor (TAT47-57-εV1-2), the εPKC activator (TAT47-57-ΨεRACK) or olmesartan (ARB) in LV from 17-week-old rats on the expression of 92 genes was examined. […]
Two μg of total RNA extracted from the LV tissues of each […] rat (n=6 for each group) were converted to first-strand cDNA by reverse transcription using High Capacity cDNA Archive kit (Applied Biosystems). […] The fluorescence signals were normalized to the ubiquitously expressed housekeeping gene, β-actin. Fold-changes of mRNA expression of each group compared to the LS-control were determined by comparing cycle threshold values (24). Statistical analysis was assessed by 1-way factorial ANOVA with Fisher's test. […]

[7] = tested on: neonatal rat fibroblasts; assay: Collagen secretion from primary cardiac cultured fibroblasts; type: cell-based; conditions: peptide 1 μM; TGFβ1 10 ng/mL

Compound	survival rate [1]	Systolic Wall Stress ([1]; 17 weeks of age, calculated (SBP × ESD)/[4 × PWT × (1 + PWT/ESD)], mean ± SEM) [g/cm^2]	fractional shortening / cardiac function ([1]; at 17 weeks, in words)	increase in MMP2 (zymography) [2]	levels of δPKC in the particulate fraction (translocation) [3]	total levels (expression) of δPKC [3]	increase of fibrosis [4] [%]	serum troponin T [5]	expression of IL-1β [6]	gene expression of IL-1β, IL-6, MMP7 and TIMP1 [6]	TGFβ-induced collagen secretion into cell culture media [7]
CCCc1nc(C(C)(C)O)c(C(=O)O)n1Cc1ccc(-c2ccccc2-c2nnn[nH]2)cc1 [Olm, olmesartan]	improved survival rate										
CC[C@H](C)[C@H](NC(=O)[C@@H]1CCCN1C(=O)[C@H](C)NC(=O)[C@H](CC(=O)O)NC(=O)[C@H](Cc1c[nH]cn1)NC(=O)[C@@H](N)CSSC[C@H](N)C(=O)N[C@@H](Cc1ccc(O)cc1)C(=O)NCC(=O)N[C@@H](CCCNC(=N)N)C(=O)N[C@@H](CCCCN)C(=O)N[C@@H](CCCCN)C(=O)N[C@@H](CCCNC(=N)N)C(=O)N[C@@H](CCCNC(=N)N)C(=O)N[C@@H](CCC(N)=O)C(=O)N[C@@H](CCCNC(=N)N)C(=O)N[C@@H](CCCNC(=N)N)C(=O)N[C@@H](CCCNC(=N)N)C(=O)O)C(=O)NCC(=O)N[C@@H](Cc1ccc(O)cc1)C(=O)N[C@@H](CC(=O)O)C(=O)O [ΨεR]	accelerated the death rate	131.1 ± 20.2	trend towards a reduced fractional shortening	attenuated	did not affect	Neither treatment significantly affected	~150	significantly increased	increased	increased	trend to enhance

From patent US8426364B2, “Method of preventing progression of hypertension-induced heart failure with PKC peptides” (The Board of Trustees of the Leland Stanford Junior …, priority 0011, dated 2013)
